From the supplement of paper PMC12067093, “Discovery and optimisation of a covalent ligand for TRIM25 and its application to targeted protein ubiquitination” (Chemical Science, 2025) come the findings set out here.

Protein sequences, listed by entry. Tags and fused reporters are not part of them. Lines headed by an entry give the natural chain unless they say otherwise; changes in a name come on top.
UniProt Q9UHB9: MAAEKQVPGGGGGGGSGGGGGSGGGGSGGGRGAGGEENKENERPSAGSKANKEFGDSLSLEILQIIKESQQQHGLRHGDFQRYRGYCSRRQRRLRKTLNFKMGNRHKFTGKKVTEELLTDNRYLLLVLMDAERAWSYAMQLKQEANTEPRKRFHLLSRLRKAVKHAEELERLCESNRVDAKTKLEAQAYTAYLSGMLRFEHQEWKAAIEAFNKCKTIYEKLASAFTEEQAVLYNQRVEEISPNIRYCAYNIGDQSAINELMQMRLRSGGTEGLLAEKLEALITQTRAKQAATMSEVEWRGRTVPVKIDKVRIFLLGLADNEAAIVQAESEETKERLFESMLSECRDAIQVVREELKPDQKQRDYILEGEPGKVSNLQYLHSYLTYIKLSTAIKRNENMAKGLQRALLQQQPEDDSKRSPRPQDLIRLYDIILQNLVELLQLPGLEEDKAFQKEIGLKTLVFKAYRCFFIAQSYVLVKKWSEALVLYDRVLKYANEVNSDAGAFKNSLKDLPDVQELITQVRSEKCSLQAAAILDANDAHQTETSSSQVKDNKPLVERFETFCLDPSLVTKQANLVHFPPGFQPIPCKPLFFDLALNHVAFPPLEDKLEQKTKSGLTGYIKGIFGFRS
UniProt O95149, whole entry, looked up: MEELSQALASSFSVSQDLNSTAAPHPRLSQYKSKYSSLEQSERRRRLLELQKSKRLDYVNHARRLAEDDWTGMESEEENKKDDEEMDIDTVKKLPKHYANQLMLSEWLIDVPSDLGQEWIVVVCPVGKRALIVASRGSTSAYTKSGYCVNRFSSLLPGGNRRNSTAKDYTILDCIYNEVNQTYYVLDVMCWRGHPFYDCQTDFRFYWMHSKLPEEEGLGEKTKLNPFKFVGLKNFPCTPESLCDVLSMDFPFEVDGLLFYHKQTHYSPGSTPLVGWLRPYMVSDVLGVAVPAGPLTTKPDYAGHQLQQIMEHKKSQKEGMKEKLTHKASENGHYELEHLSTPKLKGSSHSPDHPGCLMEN
UniProt Q9HD15: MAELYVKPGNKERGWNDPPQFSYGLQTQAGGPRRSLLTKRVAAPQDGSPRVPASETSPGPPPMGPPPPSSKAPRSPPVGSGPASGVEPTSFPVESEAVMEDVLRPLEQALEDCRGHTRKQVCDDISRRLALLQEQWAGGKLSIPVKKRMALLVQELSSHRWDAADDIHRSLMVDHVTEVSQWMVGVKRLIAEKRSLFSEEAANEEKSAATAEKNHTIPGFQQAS
UniProt O94964: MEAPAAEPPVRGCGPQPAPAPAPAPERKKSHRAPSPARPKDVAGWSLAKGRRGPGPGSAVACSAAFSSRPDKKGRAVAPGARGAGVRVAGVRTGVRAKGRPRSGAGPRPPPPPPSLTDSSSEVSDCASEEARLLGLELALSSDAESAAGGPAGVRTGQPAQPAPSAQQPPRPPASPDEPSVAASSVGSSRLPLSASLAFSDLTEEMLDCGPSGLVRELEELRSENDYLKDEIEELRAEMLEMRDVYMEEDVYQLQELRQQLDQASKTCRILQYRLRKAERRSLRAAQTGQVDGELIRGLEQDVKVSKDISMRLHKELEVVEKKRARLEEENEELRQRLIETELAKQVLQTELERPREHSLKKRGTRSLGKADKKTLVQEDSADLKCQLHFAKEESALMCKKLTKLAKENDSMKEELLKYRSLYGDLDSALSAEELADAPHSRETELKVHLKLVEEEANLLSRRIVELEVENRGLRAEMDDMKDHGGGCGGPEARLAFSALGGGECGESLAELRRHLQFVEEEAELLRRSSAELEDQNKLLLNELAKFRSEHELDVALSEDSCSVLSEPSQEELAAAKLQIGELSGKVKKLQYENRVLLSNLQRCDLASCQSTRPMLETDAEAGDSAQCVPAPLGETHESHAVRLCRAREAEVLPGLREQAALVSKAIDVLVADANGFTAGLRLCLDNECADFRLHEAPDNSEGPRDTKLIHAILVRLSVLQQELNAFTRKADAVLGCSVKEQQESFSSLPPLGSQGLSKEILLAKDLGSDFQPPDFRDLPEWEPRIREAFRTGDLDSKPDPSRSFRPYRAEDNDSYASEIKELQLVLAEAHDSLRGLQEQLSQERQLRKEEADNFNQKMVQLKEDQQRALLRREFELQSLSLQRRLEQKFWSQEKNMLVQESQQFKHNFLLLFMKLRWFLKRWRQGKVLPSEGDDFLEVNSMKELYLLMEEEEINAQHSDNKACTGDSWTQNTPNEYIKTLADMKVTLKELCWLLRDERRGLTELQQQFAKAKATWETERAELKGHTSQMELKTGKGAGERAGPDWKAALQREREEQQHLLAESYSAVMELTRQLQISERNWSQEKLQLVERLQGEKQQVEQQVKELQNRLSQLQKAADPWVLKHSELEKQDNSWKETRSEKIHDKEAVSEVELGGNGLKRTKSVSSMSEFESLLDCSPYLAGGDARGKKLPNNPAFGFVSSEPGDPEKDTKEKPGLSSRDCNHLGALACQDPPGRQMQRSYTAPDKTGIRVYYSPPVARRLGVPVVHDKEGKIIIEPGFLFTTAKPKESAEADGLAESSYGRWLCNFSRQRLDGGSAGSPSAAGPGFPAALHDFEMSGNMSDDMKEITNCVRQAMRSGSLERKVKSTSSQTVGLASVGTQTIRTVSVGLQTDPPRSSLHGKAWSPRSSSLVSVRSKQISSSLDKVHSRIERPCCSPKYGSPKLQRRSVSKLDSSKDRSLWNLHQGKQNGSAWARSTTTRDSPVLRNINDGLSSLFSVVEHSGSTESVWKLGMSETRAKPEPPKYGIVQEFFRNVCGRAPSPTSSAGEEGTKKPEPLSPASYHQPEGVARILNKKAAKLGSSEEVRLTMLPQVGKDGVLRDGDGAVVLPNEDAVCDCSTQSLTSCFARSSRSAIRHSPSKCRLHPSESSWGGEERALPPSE
UniProt Q9Y6N5: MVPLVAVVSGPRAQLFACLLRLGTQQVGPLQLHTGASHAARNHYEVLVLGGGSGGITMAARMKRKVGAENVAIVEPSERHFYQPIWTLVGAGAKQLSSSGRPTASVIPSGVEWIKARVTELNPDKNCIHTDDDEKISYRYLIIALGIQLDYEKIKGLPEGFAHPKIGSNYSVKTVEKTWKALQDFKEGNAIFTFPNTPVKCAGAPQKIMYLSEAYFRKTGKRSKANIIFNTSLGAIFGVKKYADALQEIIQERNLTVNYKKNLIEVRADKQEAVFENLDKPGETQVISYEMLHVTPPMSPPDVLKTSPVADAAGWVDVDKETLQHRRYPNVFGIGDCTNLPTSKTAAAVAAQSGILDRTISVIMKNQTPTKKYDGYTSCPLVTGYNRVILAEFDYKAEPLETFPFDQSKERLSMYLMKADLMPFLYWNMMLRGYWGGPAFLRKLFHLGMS
UniProt Q8TCT7: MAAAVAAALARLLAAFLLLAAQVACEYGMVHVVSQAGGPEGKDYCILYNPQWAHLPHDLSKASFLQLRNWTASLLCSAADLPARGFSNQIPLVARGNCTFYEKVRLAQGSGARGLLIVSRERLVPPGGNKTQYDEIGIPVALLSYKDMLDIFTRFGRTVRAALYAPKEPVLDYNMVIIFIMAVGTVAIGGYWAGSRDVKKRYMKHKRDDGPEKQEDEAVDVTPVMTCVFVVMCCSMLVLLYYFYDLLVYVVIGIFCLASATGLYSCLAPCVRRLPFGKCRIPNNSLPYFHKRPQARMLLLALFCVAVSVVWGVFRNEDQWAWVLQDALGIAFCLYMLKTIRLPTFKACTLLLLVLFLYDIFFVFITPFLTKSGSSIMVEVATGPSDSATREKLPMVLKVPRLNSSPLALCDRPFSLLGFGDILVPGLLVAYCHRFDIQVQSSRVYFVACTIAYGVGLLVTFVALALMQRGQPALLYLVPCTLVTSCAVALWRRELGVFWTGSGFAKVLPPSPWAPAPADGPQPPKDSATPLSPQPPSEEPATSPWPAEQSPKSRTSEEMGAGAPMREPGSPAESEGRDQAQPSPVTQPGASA
UniProt P08047, whole entry, looked up: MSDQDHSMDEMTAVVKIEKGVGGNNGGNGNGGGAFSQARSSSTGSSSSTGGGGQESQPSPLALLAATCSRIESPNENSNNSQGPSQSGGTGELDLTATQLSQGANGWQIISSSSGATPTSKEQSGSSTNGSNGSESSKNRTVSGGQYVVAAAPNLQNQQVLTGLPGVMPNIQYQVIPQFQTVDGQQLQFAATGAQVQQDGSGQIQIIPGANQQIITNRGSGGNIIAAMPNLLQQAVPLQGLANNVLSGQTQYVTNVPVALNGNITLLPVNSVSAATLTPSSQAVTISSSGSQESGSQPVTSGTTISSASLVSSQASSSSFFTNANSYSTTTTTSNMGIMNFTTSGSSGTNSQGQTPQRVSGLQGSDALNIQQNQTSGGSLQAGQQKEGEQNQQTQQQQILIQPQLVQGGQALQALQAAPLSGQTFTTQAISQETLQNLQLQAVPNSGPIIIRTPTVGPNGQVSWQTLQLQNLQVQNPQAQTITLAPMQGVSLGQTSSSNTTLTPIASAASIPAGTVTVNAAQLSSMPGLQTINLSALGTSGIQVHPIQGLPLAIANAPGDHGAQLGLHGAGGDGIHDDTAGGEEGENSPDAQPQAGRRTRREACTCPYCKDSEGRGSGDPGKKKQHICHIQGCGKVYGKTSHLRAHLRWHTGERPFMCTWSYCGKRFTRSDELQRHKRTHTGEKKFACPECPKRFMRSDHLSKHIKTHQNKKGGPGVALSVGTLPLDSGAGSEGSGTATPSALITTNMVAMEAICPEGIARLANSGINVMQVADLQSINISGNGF
UniProt Q9Y5W7: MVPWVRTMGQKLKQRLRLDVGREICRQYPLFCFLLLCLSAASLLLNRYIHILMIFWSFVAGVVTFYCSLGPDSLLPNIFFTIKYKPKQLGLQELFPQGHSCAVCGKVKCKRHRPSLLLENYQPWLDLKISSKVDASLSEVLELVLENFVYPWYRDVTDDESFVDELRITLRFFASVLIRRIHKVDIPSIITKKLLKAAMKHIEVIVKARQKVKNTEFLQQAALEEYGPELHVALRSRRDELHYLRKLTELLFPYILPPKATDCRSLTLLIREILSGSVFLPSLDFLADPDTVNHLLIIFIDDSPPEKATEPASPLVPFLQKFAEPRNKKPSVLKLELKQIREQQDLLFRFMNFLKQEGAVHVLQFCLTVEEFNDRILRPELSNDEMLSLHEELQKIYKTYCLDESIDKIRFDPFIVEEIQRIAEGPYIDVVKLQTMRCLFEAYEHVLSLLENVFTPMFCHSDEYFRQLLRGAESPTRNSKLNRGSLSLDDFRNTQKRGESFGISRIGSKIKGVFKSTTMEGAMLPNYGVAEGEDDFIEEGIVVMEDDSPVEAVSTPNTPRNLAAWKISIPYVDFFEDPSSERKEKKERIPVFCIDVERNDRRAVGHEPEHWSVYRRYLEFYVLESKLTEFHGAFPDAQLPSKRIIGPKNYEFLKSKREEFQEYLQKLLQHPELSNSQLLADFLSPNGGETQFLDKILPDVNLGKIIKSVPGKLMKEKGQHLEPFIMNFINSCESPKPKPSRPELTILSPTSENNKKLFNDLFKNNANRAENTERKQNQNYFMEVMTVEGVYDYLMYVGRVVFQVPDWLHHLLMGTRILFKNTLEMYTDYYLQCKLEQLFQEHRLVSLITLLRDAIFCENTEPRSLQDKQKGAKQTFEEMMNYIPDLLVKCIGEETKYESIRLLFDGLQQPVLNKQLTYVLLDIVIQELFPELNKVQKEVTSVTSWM
UniProt P30626: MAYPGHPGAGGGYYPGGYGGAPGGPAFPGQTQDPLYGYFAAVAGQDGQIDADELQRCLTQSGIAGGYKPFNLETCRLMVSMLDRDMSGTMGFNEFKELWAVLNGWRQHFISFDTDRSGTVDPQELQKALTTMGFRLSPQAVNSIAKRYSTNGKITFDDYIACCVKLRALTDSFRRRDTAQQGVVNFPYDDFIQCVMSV
UniProt O60504: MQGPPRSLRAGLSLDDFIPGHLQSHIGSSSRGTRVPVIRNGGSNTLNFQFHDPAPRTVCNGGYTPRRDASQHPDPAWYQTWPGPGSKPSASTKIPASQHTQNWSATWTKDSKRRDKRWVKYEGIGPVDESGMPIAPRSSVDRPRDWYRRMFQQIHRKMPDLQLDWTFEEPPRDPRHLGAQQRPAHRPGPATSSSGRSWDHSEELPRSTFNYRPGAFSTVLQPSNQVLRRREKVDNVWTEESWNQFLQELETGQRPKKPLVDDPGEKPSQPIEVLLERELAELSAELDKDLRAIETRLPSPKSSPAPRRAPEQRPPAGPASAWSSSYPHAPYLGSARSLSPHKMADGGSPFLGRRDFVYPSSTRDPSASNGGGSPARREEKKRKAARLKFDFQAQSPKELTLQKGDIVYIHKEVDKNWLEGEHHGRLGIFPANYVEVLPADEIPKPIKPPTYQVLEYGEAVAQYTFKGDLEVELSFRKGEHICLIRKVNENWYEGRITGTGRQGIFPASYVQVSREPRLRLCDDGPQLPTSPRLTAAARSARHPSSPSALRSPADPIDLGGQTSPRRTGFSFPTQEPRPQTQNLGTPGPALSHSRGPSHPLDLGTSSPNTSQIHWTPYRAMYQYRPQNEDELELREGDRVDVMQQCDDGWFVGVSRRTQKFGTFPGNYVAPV

The list shows a part of the results.

Compound in this assay: Cc1cc(ccc1-c1ccccc1)C(=O)N1CCCN(CC1)C(=O)CCl [compound 10]
Briefly: probe-labelled cysteine peptide fold change vs DMSO (competition) (log2 fold change); higher = less target engagement (more negative = stronger competition). Particulars: THP-1, incubation time: 4 h.
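Note: competitive profiling in live THP-1 cells: cysteine peptides tagged with an iodoacetamide desthiobiotin (IA-DTB) probe, intensity after compound treatment relative to DMSO-treated cells.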

Take “SRP68_Q9UHB9_173_LCESNR (UniProt Q9UHB9)”: the “probe-labelled cysteine peptide fold change” value reads like this: (10 µM) 0.329; (50 µM) 0.506.

In the case of “SNUPN_O95149_199_GHPFYDCQTDFR (UniProt O95149)”, the “probe-labelled cysteine peptide fold change” value (10 µM) came out at 0.193 and the “probe-labelled cysteine peptide fold change” value (50 µM) is -0.0261.

With “SNX9_Q9Y5X1_502_GFLGCFPDIIGTHK (UniProt Q9Y5X1)”, the “probe-labelled cysteine peptide fold change” value by setting is: (10 µM) 0.124; (50 µM) 0.0742.

As to “SRA1_Q9HD15_134_QVCDDISR (UniProt Q9HD15)”, the “probe-labelled cysteine peptide fold change” value (10 µM) stood at 0.0881 and the “probe-labelled cysteine peptide fold change” value (50 µM) is 0.0823.

Consider “SOGA1_O94964_1113_EITNCVR (UniProt O94964)”, for which the “probe-labelled cysteine peptide fold change” value (10 µM) was -0.0397 and the “probe-labelled cysteine peptide fold change” value (50 µM) is -0.447.

Consider “SPTAN1_Q13813_2120_CNSLEEIK (UniProt Q13813)”, for which the “probe-labelled cysteine peptide fold change” value is -0.0272 (10 µM) and -0.0027 (50 µM).

Take “SQOR_Q9Y6N5_337_YPNVFGIGDCTNLPTSK (UniProt Q9Y6N5)”: the “probe-labelled cysteine peptide fold change” value was -0.195 (10 µM) and 0.186 (50 µM).

In the case of “SPPL2B_Q8TCT7_45_DYCILYNPQWAHLPHDLSK (UniProt Q8TCT7)”, the “probe-labelled cysteine peptide fold change” value was 0.0757 (10 µM) and -0.119 (50 µM).

Regarding “SP1_P08047_633_QHICHIQGCGK (UniProt P08047)”, the “probe-labelled cysteine peptide fold change” value (10 µM) was found to be 0.0101 and the “probe-labelled cysteine peptide fold change” value (50 µM) is -0.0604.

Regarding “SRP68_Q9UHB9_87_YRGYCSR (UniProt Q9UHB9)”, the “probe-labelled cysteine peptide fold change” value reads like this: (10 µM) -0.0459; (50 µM) -0.105.

Turning to “SQOR_Q9Y6N5_127_NCIHTDDDEK (UniProt Q9Y6N5)”, the “probe-labelled cysteine peptide fold change” value runs as follows: (10 µM) -0.185; (50 µM) -0.0351.

As for “SNX14_Q9Y5W7_593_IPVFCIDVER (UniProt Q9Y5W7)”, the “probe-labelled cysteine peptide fold change” value (10 µM) stood at 0.0529 and the “probe-labelled cysteine peptide fold change” value (50 µM) turned out to be 0.701.

Regarding “SRI_P30626_194_RDTAQQGVVNFPYDDFIQCVMSV (UniProt P30626)”, the “probe-labelled cysteine peptide fold change” value (10 µM) is 0.258 and the “probe-labelled cysteine peptide fold change” value (50 µM) was 0.269.

Consider “SORBS3_O60504_482_KGEHICLIR (UniProt O60504)”, for which the “probe-labelled cysteine peptide fold change” value by setting is: (10 µM) 0.166; (50 µM) -0.34.

Turning to “SPATS2L_Q9NUQ6_185_SDGLQWSAEQPCNPSKPK (UniProt Q9NUQ6)”, the “probe-labelled cysteine peptide fold change” value is -0.0225 (10 µM) and -0.476 (50 µM).
